Test results published in the supplement of paper PMC3334620.
Whole data set: some 33,000 sequences, median “E-score (-0.5 to 0.5)” near -0.016, cut for the highest 2% near 0.3. The list shows a part of the results.

Each sequence was assayed against T1, Yer184c (UniProt P39961) (assay: PBM E-score (8-mer binding enrichment) (E-score (-0.5 to 0.5)); higher = stronger / more preferred TF binding). Details: protein concentration: 100 nM; construct: GST-full length.
T1 sequence: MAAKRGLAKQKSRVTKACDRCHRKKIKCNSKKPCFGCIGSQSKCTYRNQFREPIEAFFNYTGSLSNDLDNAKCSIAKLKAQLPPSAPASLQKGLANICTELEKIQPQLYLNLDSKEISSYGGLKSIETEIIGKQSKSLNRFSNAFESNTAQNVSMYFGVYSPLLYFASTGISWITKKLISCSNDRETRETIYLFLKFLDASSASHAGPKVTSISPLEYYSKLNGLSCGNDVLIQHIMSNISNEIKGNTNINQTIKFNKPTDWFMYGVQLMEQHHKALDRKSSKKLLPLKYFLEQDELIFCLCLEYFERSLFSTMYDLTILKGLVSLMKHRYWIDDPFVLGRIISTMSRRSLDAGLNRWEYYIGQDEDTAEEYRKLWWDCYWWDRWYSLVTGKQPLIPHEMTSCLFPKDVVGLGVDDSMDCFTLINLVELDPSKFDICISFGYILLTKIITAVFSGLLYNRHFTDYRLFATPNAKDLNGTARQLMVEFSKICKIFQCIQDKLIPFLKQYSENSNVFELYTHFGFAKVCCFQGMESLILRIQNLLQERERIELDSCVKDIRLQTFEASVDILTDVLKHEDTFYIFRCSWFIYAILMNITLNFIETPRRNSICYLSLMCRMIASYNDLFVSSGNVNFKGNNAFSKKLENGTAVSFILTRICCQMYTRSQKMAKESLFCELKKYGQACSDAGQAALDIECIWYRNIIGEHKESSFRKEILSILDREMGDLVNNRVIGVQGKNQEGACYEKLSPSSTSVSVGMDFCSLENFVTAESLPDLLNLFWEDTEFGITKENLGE
Procedure, shortened: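 Universal all-10-mer Agilent arrays, double-stranded by primer extension on fresh or once-stripped slides, were probed with about 100-200 nM GST-tagged yeast transcription factors made by PURExpress. Fluorescent anti-GST detected bound protein, and masliner normalised the scans. E-scores from the Universal PBM Analysis Suite were given to each ungapped eight-base word pooled with its reverse complement.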

Compared with ACGGGTCT, CCTGTCAG is higher in “PBM E-score” value: -0.324 for the first, -0.101 for the second.

First: AAGTAGCA
Second: ACTGCGCC
The “PBM E-score” value of the first is higher: -0.0482 for the first, -0.21 for the second.

Compared with ATGGAACC, ATAACAAA is higher in “PBM E-score” value: 0.0146 for the first, 0.357 for the second.

First: ACCTTGTG
Second: ACAACTTA
The “PBM E-score” value of the first is lower: -0.12 for the first, -0.0569 for the second.

First: AGACAGGG
Second: GTCCGTTA
The “PBM E-score” value of the first is lower: -0.249 for the first, 0.207 for the second.

Compared with AAAATACA, CGAATAGC is lower in “PBM E-score” value: 0.0898 for the first, -0.0213 for the second.

Going from GAAGGGCA to CAGTCACC, the “PBM E-score” value falls from -0.0539 to -0.251.

Compared with ACGGCCCA, CAGTCTAG is lower in “PBM E-score” value: -0.0167 for the first, -0.132 for the second.

Compared with AGTTTCCG, ATTGGGCA is lower in “PBM E-score” value: 0.392 for the first, -0.248 for the second.

Compared with CTAGGTCA, ATCGCTGG is higher in “PBM E-score” value: -0.144 for the first, -0.0399 for the second.

Compared with ACGTAGAA, TGAATCAA is higher in “PBM E-score” value: -0.0314 for the first, 0.273 for the second.

Compared with ATCATCTC, GTTCAACA is higher in “PBM E-score” value: 0.11 for the first, 0.17 for the second.

Going from AAACACCA to CACTGCAA, the “PBM E-score” value rises from -0.0681 to 0.0304.

First: TAAGGTCA
Second: AATCGGCG
The “PBM E-score” value of the first is lower: -0.171 for the first, 0.226 for the second.

Going from CCATAAGG to ACGTCGCT, the “PBM E-score” value rises from -0.264 to -0.239.

Going from GGTTCCAC to CGCCCGGA, the “PBM E-score” value rises from -0.116 to 0.264.

Going from GTATAGGA to GCCCCAGC, the “PBM E-score” value falls from -0.21 to -0.26.

Compared with AAGTTCCC, AGGACTTG is lower in “PBM E-score” value: -0.0932 for the first, -0.151 for the second.

First: GCGAAGGA
Second: ATTCCACA
The “PBM E-score” value of the first is lower: -0.111 for the first, 0.202 for the second.

First: AAAGTCTA
Second: GAGAACAA
The “PBM E-score” value of the first is lower: 0.0242 for the first, 0.175 for the second.

First: ACTGACGC
Second: TGCTGCCA
The “PBM E-score” value of the first is lower: -0.217 for the first, -0.159 for the second.

Going from CCCATCAA to CACCTTCC, the “PBM E-score” value falls from -0.00527 to -0.0129.

Compared with GGATCCTA, AGCTTTAT is higher in “PBM E-score” value: -0.0163 for the first, 0.0275 for the second.

Going from CTCGCGGA to CCATCCAG, the “PBM E-score” value falls from 0.0472 to -0.103.

Compared with GACATTGA, AAATAGCA is lower in “PBM E-score” value: 0.0743 for the first, -0.047 for the second.

First: ATTTCCAA
Second: CACTAGAC
The “PBM E-score” value of the first is higher: 0.102 for the first, -0.109 for the second.

Going from AGCTCACA to ACTGCTAA, the “PBM E-score” value falls from -0.113 to -0.139.

First: ATAGTGCA
Second: ACGAGCGT
The “PBM E-score” value of the first is higher: 0.104 for the first, -0.166 for the second.

Compared with CGTCTGGA, AGCCATGC is lower in “PBM E-score” value: -0.12 for the first, -0.176 for the second.

Compared with AGATGGGG, AACTTAGA is higher in “PBM E-score” value: -0.328 for the first, 0.106 for the second.

First: ACACACAA
Second: CGAGCGCC
The “PBM E-score” value of the first is higher: 0.122 for the first, -0.0295 for the second.

Compared with CGAGGACC, AGCTGAGG is lower in “PBM E-score” value: -0.0009 for the first, -0.11 for the second.

First: CCGGTTCG
Second: ACCCCTAA
The “PBM E-score” value of the first is higher: 0.193 for the first, -0.194 for the second.

Compared with ACAAAGGT, ACAAACGT is lower in “PBM E-score” value: 0.0426 for the first, -0.126 for the second.

Compared with CCAACCGA, AGGCCCCA is lower in “PBM E-score” value: 0.155 for the first, -0.281 for the second.

Compared with GATGCAGA, CTAACGAG is higher in “PBM E-score” value: -0.139 for the first, -0.0222 for the second.

Compared with CCTGAACG, GCATATAA is higher in “PBM E-score” value: 0.0764 for the first, 0.204 for the second.

Compared with CTCGCTCA, ATCGGATA is higher in “PBM E-score” value: 0.162 for the first, 0.369 for the second.

Going from CTGCCTTA to CACATTGC, the “PBM E-score” value rises from -0.244 to -0.0846.

First: CTGGCGCC
Second: CACCCTAC
The “PBM E-score” value of the first is higher: -0.00359 for the first, -0.162 for the second.

Compared with CGTGATCC, CTGAGCTC is higher in “PBM E-score” value: -0.0695 for the first, 0.00987 for the second.

Going from CGGGGAGA to CCCTAAAG, the “PBM E-score” value falls from -0.186 to -0.206.

Going from ATACGTGG to CGTAGAAG, the “PBM E-score” value rises from -0.08 to -0.0183.

Compared with GGTTTGAC, TAAATCCA is lower in “PBM E-score” value: 0.0318 for the first, 0.00272 for the second.

First: CTTCATTC
Second: ATATCTGG
The “PBM E-score” value of the first is lower: -0.172 for the first, 0.00195 for the second.

Going from ACTACGAC to CTCCGCAG, the “PBM E-score” value falls from 0.0171 to -0.136.

Going from CGCAAAAG to TATTGCAA, the “PBM E-score” value rises from 0.0528 to 0.24.

First: CGTACCTA
Second: GGAAGCAC
The “PBM E-score” value of the first is lower: -0.219 for the first, 0.124 for the second.

Going from AGGGGAAT to CGACTCAC, the “PBM E-score” value falls from 0.0617 to -0.11.

Compared with CATATCCC, CTAGAGAA is lower in “PBM E-score” value: 0.0121 for the first, 0.00696 for the second.

Going from CTTAGAGA to AACCTCAG, the “PBM E-score” value falls from -0.0897 to -0.114.

First: TACCAGGA
Second: AAGCAAGG
The “PBM E-score” value of the first is higher: 0.0761 for the first, 0.0654 for the second.

First: ATGTAGCA
Second: TAAAGTCA
The “PBM E-score” value of the first is lower: -0.101 for the first, 0.0728 for the second.

First: CAAAAGAC
Second: ACTATATG
The “PBM E-score” value of the first is lower: -0.0595 for the first, 0.0113 for the second.

Going from TTAGTGAA to CAAGGCCC, the “PBM E-score” value falls from -0.022 to -0.134.
